The nature of this data set: Taste of the drug substance.

Our source for the taste values is patent US20150328320A1, “Novel Pharmaceutical Composition” (GLAXOSMITHKLINE LLC, priority 2012, published 2015).

Where two headings read alike, the source gives them in different places.

Regarding `CC(=O)Nc1cccc(-n2c(=O)n(C3CC3)c(=O)c3c(Nc4ccc(I)cc4F)n(C)c(=O)c(C)c32)c1` [Compound A, N-{3-[3-cyclopropyl-5-(2-fluoro-4-iodo-phenylamino)-6,8-dimethyl-2,4,7-trioxo-3,4,6,7-tetrahydro-2H-pyrido[4,3-d]pyrimidin-1-yl]phenyl}acetamide dimethyl sulfoxide solvate], the taste result is “bitter taste”. The taste entry (listed as trametinib) is recorded as “bitter”.
